{"source": "patent US20210401931A1", "about": "“METHODS AND MATERIALS FOR TREATING CANCER” (Mayo Foundation for Medical Education and Research, priority 2018, published 2021)", "key": {"[1]": {"system": "RB", "assay": "Western blot of RB phosphorylation in PC-3 cells", "assay_type": "cell-based, human", "conditions": "palbociclib 5 μM, 24 hours"}, "[2]": {"system": "RB-E2F1 interaction", "assay": "Co-immunoprecipitation of RB and E2F1 in PC-3 cells", "assay_type": "cell-based, human", "conditions": "palbociclib 5 μM, 24 hours, co-IP"}, "[3]": {"system": "MAP3K7- and CHD1-KD PC-3 cells", "assay": "MTS viability / IC50 analysis in MAP3K7- and CHD1-KD PC-3 cells", "assay_type": "cell-based, human", "conditions": "MTS assay, log 2(IC50ratio)", "method": "FIGS. 14A-G. RB functions as a negative regulator of NFκB signaling. (A) PC-3 infected with lentivirus for indicated shRNAs were treated with different chemicals and cells viability was measured by MTS assay. Heat map showing the normalized IC50 ratio (log 2(IC50ratio)). (B-D) PC-3 cells infected with lentivirus expressing indicated shRNAs were harvested for western blots (B), FACS (C), and RT-qPCR (D). All data were shown as mean values±SD (n=3). ns, not significant, * P<0.05, ** P<0.01, *** P<0.001. (E, F) PC-3 cells infected with indicated lentivirus were injected s.c. into NSG mice, and tumors were harvested and photographed at day 21 (E). Data in (F) were shown as means±SD (n=5). ns, not significant, * P<0.05. (G) A model depicting RB functions as a negative regulator of NFκB (p65/p50), providing an explanation of the finding that depletion of RB offsets the death of PTEN-null cells induced by either MAP3K7 or CHD1 deletion.\nMAP3K7 or CHD1 was knocked down (KD) in PTEN-null PC-3 cells followed by treatment with an array of small molecule inhibitors for a number of cancer relevant pathways."}, "[4]": {"system": "NF-κB site of the PD-L1 promoter", "assay": "EMSA with biotin-labeled PD-L1-prom oligonucleotide and PC-3 nuclear extracts", "assay_type": "cell-based, human", "conditions": "PC-3 nuclear extract", "from_the_text": "FIGS. 11A-H. (A) Heatmap showing differentially expressed genes (FDR<0.01) between palbociclib treatment versus DMSO and knockdown RB1 versus control. Gene expression values (FPKM) were Z-score normalized. FPKM, Fragments Per Kilobase of transcript per Million mapped reads. (B) UCSC Genome Browser screenshots of meta-analysis of published RB ChIP high throughput sequencing (ChIP-seq) data showing RB binding to CD274 (PD-L1) gene locus in K562 cells. PD-L1-prom oligonucleotide DNA containing NF-κB binding sequence was shown in the RB binding peak in the PD-L1 gene, the corresponding mutant PD-L1-prom oligonucleotide DNA was shown below. FIG. 11B discloses SEQ ID NOS 279-280, respectively, in order of appearance. (C) ChIP-qPCR analysis of RB binds at the PD-L1 promotor in PC-3 cells. All data were shown as mean values±SD (n=3). *** P<0.001. (D) ChIP-reChIP analysis examining the co-localization of p65 and RB in the PD-L1 promoters. All data were shown as mean values±SD (n=3). ** P<0.01. […]\nFIGS. 21A-N. Effect of RB depletion, cell cycle, and RB-N S249/T252 phospho-mimicking peptide on PD-L1 expression in cell lines of various cancer types. […] 48 hours after infection, PD-L1 expression was determined by western blotting (A), RT-qPCR (B), and FACS (C). […] (D) Pd-l1 protein and mRNA levels were determined by western blotting in primary SKO and DKO mouse prostate tumor cell lines. […]"}, "[5]": {"system": "PD-L1 mRNA", "assay": "PD-L1 mRNA by RT-qPCR in other human and mouse cancer cell lines (MIA PaCa-2, H1299, SK-Hep1, PTEN-CaP8)", "assay_type": "cell-based", "conditions": "different doses, 24 hours"}}, "note": "For at least one compound, name, drawing or mass did not settle the structure."}
{"smiles": "CC(=O)c1c(C)c2cnc(Nc3ccc(N4CCNCC4)cn3)nc2n(C2CCCC2)c1=O", "note": "[palbociclib, Palbociclib]", "values": [{"measurement": "RB phosphorylation", "setting": "[1]", "value": "substantially reduced"}, {"measurement": "RB interaction with E2F1", "setting": "[2]", "value": "substantially increased"}, {"measurement": "viability of MAP3K7- and CHD1-KD PC-3 cells (normalized IC50 ratio)", "setting": "[3]", "value": "large-degree (log 2 scale) increase"}, {"measurement": "DNA-protein complex (DPC) level at PD-L1-Prom probe", "setting": "[4]", "value": "largely augmented"}, {"measurement": "PD-L1 mRNA expression in other human and mouse cancer cell lines", "setting": "[5]", "value": "markedly induced"}]}
